Results on 18 compounds are retold here after the supplement of paper PMC12873370.

Where “and” joins values, the source holds several entries; their conditions need not be identical. Equal values may be shown once. The list shows a part of the results. Single values are uncertain, as repeats are few or missing.

The subject of this test is MEPP (mouse ovarian epithelium Trp53/Pten KO). Nature of the test: cell viability relative to untreated (fraction); higher = less growth inhibition. Particulars: 5 µM; 3 days.
For `CC(C)=CCNc1ncnc2nc[nH]c12`, the cell viability was found to be 1.05.
With `O=C(O)c1cc(=O)cc(C(=O)O)[nH]1` the figure was 0.974.
In turn, `Nc1ncnc2c1ncn2C1CC(O)C(CO)O1` (stereo not drawn) registered a cell viability of 0.834.
In turn, `O=C(O)CCC(=O)Nc1ccc(S(=O)(=O)Nc2nccs2)cc1` had a cell viability of 0.881.
To `C=C[C@H]1CN2CC[C@H]1C[C@@H]2[C@@H](O)c1ccnc2ccc(OC)cc12` belongs 0.837.
As for `CCCCCCCCC[C@H](O)CC(=O)CCc1ccc(O)c(OC)c1`, the cell viability was determined as 1.15.
Consider `CN[C@@H]1[C@H](O)[C@H](NC)[C@H]2O[C@@]3(O)C(=O)C[C@@H](C)O[C@H]3O[C@@H]2[C@H]1O`, for which the cell viability was 0.81 and 0.854.
In turn, `O=C1c2ccc(O)cc2C(=O)c2ccc(O)cc21` had a cell viability of 0.926.
As to `CN(C)[C@@H]1C(O)=C(C(N)=O)C(=O)[C@@]2(O)C(O)=C3C(=O)c4c(O)cccc4[C@@](C)(O)[C@H]3[C@H](O)[C@@H]12`, the cell viability is 0.948 and 0.893.
To `CC1(C)CC(=O)CC(C)(C)N1` belongs 0.941.
With `CC(=O)Oc1c(C)c(C)c2c(c1C)CCC(C)(CCC[C@H](C)CCC[C@H](C)CCCC(C)C)O2` (stereo partly drawn) the figure was 0.961.
With `COc1c(O)cc2c(c1O)C(=O)c1c(cc(C)c(O)c1OC)C2=O` the figure was 1.12; with `O=C(O)/C=C/c1ccc(O)c(O)c1`, 1.03.
In turn, `C[C@H](N)C(=O)O` showed a cell viability of 1.03.
To `O=C(O)C(O)C(O)C(=O)O` (stereo not drawn) belongs 0.999; to `C[C@@H](O)[C@H](N)C(=O)O`, 0.922; to `OC[C@@H](O)[C@@H](O)[C@H](O)[C@@H](O)CO`, 1.
Turning to `COc1cccc2c1C(=O)c1c(O)c3c(c(O)c1C2=O)C[C@@](O)(C(C)=O)C[C@@H]3O[C@H]1C[C@H](N)[C@H](O)[C@H](C)O1`, the cell viability came out at 0.405.
